Test results as given in paper PMC5741719.

Sequences of proteins named here, by UniProt entry; tags and fusion partners are left off. A change or cut given only in a name is not applied to a line headed by its entry. Residues count along the entry.
UniProt P62812, residues 28-455: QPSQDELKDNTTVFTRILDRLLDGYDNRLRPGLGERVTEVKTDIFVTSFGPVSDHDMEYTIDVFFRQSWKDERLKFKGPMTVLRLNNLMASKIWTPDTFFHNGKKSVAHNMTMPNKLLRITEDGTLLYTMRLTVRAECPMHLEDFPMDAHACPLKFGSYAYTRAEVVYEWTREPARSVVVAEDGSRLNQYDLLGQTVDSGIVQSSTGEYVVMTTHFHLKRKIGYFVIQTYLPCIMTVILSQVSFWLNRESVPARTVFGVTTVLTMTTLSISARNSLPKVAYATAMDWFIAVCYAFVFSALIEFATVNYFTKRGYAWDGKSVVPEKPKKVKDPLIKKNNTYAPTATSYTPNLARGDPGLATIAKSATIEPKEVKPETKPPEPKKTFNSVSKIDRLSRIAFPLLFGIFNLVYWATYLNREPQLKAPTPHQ
UniProt P16043: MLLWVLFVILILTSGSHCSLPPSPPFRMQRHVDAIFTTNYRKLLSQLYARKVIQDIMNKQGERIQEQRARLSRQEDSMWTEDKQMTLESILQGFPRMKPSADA

Biological target: GABAA receptor alpha 1 subunit (mouse (endogenous in hippocampal tissue)) (UniProt P62812)
Assay: co-IP; protein extracts of mouse hippocampal tissue in IP lysis buffer; incubated overnight at 4 °C with anti-GHRH, anti-GABAAα1 or anti-GABAAβ2 + 3 antibody (rabbit IgG as isotype control); Protein A/G agarose beads 2 h at 4 °C, five washes; Western blot

binding: binds
Substance: Growth hormone releasing hormone (from UniProt P16043)

No constants are given. Whether binding was seen depends on the method and setting. Binding seen in cells or lysates may run through a third protein. Binding calls can cover weak binding; strength is not graded here.
